# Experimental data from the supplement of paper PMC10849652.
# Chains of the proteins cited; added tags and fusions are not shown. Lines headed by an entry give the natural chain unless they say otherwise; changes in a name come on top.
# UniProt P24386: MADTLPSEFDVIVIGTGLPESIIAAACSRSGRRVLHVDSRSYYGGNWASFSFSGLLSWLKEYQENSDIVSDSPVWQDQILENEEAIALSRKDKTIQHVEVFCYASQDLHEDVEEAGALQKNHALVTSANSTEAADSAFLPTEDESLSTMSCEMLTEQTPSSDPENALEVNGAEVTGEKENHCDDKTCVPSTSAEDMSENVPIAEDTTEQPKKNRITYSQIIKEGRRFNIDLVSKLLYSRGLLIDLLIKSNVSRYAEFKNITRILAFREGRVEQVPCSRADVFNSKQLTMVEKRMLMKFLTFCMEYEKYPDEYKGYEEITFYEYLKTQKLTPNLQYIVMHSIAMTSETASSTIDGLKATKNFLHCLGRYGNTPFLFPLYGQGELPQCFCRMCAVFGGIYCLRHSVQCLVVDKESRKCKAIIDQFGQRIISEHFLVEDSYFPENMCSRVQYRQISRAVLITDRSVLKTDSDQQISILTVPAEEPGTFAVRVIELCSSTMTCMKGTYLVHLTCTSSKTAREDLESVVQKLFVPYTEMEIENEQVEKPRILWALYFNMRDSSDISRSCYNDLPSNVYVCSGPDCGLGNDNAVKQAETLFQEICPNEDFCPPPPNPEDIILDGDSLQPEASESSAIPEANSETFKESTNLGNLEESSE
# UniProt Q9C0F1: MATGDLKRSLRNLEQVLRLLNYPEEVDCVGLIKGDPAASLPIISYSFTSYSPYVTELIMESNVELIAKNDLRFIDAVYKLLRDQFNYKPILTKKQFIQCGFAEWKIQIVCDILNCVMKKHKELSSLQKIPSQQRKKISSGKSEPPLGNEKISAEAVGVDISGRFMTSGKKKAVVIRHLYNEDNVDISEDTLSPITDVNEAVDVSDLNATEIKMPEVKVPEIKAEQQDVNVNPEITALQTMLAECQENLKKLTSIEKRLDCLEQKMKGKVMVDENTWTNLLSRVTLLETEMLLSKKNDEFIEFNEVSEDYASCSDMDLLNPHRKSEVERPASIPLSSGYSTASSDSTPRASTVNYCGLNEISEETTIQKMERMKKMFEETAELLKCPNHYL
# UniProt O43633: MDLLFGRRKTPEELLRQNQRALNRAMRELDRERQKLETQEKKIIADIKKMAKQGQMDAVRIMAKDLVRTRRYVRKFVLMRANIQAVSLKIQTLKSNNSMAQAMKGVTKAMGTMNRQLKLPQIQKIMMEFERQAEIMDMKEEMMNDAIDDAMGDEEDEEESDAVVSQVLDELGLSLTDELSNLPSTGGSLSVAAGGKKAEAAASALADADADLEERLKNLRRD
# UniProt Q96FF9: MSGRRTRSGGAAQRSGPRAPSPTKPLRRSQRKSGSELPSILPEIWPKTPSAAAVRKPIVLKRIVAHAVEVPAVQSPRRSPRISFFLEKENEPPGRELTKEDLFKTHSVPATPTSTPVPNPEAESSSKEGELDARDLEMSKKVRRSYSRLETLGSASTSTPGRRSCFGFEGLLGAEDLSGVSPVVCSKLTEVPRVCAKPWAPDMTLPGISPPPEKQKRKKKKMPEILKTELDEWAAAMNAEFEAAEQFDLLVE
# UniProt Q96G28: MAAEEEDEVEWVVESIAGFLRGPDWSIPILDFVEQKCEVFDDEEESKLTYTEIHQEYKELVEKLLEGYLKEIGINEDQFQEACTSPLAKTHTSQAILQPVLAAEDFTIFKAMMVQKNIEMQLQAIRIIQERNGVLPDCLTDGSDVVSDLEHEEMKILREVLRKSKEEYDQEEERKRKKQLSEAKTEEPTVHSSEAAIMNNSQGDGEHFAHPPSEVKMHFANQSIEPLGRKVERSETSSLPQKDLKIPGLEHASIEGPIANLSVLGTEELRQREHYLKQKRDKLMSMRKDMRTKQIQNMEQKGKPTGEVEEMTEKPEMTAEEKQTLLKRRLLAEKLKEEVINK
# UniProt Q9H3R5: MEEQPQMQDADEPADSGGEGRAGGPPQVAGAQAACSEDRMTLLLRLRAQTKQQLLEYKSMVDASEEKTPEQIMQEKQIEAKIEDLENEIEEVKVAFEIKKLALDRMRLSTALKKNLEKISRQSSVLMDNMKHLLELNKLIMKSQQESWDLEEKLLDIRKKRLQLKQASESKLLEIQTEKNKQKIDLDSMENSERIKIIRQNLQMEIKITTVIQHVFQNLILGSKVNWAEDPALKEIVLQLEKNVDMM
# UniProt Q00535, whole entry, looked up: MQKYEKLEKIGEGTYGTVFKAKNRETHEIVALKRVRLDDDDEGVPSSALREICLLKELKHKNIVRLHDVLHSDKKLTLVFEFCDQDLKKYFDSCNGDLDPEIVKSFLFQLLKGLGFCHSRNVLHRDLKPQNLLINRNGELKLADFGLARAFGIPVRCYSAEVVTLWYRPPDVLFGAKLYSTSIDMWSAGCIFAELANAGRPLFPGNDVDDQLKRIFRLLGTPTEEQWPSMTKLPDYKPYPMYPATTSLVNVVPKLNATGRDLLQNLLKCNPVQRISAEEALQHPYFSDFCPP
# UniProt Q00587: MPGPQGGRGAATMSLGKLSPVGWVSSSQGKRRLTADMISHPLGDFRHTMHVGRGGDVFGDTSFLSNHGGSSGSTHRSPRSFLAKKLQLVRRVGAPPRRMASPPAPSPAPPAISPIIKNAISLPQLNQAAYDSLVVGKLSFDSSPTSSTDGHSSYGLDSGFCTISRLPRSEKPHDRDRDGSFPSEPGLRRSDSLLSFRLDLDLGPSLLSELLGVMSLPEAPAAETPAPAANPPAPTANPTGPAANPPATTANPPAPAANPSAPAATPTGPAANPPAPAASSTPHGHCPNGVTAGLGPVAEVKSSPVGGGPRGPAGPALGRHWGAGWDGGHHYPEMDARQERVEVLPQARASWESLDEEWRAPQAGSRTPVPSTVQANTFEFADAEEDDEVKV
# UniProt Q00536: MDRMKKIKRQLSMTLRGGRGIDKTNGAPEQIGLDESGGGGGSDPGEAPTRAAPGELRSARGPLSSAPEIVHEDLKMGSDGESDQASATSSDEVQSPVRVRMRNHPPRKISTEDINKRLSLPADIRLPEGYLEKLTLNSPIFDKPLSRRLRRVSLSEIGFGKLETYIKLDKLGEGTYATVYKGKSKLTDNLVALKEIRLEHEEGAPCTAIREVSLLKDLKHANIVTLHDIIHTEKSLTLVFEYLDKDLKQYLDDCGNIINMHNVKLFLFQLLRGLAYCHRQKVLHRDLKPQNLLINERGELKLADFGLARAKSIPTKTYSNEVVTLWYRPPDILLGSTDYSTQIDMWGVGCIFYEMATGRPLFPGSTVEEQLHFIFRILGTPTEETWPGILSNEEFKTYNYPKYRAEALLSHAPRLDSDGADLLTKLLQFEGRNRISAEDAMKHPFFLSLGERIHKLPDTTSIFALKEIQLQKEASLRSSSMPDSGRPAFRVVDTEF
# UniProt Q9Y281, whole entry, looked up: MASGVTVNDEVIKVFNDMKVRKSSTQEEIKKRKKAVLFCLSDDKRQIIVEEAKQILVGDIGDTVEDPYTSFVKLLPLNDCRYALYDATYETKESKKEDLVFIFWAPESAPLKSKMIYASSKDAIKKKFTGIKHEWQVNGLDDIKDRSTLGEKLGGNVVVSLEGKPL
# UniProt P49454: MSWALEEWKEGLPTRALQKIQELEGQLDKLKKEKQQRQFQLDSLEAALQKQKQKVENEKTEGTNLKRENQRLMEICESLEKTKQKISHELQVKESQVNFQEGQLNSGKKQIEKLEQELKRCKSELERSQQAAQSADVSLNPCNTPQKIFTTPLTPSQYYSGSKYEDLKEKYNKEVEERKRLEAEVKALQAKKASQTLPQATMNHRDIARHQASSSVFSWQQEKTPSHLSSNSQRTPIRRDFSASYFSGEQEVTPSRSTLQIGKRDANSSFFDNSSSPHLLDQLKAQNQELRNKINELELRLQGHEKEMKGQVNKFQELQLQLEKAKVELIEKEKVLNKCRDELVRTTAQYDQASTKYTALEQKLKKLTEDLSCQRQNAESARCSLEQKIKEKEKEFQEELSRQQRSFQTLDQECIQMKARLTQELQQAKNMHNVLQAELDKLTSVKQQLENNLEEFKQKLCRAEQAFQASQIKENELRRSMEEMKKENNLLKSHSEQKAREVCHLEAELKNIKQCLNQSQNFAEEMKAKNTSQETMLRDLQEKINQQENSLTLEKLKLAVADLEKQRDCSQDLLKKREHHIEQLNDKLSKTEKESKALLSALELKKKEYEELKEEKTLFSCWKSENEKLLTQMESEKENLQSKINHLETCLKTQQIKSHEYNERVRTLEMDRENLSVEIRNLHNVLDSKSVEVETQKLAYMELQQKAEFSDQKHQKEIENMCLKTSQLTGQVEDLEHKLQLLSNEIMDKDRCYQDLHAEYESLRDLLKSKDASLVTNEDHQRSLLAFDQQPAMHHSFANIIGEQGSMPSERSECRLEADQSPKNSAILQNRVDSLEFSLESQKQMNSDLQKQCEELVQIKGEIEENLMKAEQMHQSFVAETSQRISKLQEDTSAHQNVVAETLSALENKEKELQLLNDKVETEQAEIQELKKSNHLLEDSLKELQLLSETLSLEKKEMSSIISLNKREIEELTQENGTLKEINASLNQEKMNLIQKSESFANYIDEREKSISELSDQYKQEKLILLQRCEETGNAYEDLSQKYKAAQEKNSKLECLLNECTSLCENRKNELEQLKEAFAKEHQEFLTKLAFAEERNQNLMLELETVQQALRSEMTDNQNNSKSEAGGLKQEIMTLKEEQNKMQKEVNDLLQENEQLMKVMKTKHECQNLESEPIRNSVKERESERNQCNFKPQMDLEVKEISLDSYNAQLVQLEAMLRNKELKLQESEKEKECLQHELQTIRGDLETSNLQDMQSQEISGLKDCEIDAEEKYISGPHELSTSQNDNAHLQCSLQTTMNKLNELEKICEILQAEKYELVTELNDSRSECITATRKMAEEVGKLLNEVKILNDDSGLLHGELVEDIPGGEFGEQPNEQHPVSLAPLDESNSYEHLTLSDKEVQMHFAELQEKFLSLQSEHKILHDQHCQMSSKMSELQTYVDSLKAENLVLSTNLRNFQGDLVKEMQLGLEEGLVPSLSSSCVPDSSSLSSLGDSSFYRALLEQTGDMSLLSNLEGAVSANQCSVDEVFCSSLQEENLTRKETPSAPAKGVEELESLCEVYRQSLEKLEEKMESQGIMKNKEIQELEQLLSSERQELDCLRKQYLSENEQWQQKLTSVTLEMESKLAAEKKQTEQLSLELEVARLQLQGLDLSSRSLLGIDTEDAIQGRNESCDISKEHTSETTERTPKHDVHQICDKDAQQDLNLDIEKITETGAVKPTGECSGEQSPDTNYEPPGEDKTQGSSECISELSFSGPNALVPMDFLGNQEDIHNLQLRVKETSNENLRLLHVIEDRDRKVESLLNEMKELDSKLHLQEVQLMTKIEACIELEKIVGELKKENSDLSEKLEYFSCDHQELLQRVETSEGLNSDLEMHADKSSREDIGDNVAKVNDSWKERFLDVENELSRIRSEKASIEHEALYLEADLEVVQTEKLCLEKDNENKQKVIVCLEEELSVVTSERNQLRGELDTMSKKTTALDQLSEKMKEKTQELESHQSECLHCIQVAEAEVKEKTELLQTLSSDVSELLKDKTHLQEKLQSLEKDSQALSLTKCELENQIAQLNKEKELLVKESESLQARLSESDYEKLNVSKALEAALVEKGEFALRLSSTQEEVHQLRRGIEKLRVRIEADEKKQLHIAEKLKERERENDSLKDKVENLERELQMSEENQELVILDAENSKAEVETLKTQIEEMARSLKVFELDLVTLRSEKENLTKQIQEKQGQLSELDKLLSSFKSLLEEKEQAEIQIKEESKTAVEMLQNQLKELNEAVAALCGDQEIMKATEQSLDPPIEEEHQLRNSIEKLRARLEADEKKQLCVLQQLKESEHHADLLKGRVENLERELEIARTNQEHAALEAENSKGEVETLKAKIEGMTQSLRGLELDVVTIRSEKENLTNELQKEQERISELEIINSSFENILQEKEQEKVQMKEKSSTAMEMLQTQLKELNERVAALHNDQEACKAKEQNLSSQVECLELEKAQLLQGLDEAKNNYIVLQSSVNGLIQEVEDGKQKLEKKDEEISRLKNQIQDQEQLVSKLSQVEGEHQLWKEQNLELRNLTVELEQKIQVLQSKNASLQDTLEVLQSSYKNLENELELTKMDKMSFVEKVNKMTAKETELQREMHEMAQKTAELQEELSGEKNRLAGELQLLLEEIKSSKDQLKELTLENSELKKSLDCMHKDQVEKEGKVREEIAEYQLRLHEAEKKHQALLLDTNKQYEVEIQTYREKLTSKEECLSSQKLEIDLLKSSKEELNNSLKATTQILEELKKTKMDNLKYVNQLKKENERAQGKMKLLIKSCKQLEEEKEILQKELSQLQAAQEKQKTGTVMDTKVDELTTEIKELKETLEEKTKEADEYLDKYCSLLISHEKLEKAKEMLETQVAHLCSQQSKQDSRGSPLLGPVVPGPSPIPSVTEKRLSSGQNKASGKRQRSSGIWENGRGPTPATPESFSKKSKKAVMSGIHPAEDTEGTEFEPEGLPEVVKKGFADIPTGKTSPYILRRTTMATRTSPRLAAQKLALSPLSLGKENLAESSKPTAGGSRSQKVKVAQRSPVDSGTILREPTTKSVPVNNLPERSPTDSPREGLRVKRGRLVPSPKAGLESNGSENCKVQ
# The list shows a part of the results.
# Experiments:
# Assay in all cases: log2 fold change, soluble protein after heating vs DMSO (PISA); higher = thermal stabilisation; K562 cells, 10 uM, 30 min; active = over 0.2 and 3.5 SD of the protein, either way, in both replicates (recomputed)
# [1] = compound: CC1=C(C=C(C=C1)NC(=O)C2=CC(=CC=C2)C(C)(C)C#N)NC3=CC4=C(C=C3)N=CN(C4=O)C
# Outline: (§1)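 Thermal stability values are relative to control samples and come from duplicates. They are expressed as log2 fold changes. For measurement, K562 cells (2×10^6 cells/mL) received 10 μM compound for 30 min, and aliquots were heated for 3 min over 48°C-58°C, pooled, and extracted at 4°C in PBS with 0.5% NP-40. Soluble protein, the supernatant after 21,000xg for 90 min, was quantified by TMTpro 16plex LC-MS/MS with equalised channel sums.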
# [2] = compound: CC1=C(C=C(C=C1)NC(=O)C2=CC(=CC=C2)N(C)C)NC(=O)C3=CC=C(C=C3)O
# Outline: as §1
# [3] = compound: CC1=CC=C(C=C1)SC2=C3C=C(SC3=CN=C2)C(=O)N
# Outline: as §1
# [4] = compound: CC1=NC(=CC=C1)C2=C(N=C(N2)C(C)(C)C)C3=CC4=NC=CN=C4C=C3
# Outline: as §1
# Nexturastat A = compound: CCCCN(Cc1ccc(C(=O)NO)cc1)C(=O)Nc1ccccc1 [Nexturastat A]
# Outline: as §1
# vemurafenib = compound: CCCS(=O)(=O)Nc1ccc(F)c(C(=O)c2c[nH]c3ncc(-c4ccc(Cl)cc4)cc23)c1F [vemurafenib]
# Outline: as §1
# [5] = compound: CCCS(=O)(=O)Nc1ccc(F)c(C(=O)c2c[nH]c3ncc(Cl)cc23)c1F
# Outline: as §1
# [6] = compound: CCCc1cc(C)[nH]c(=O)c1CNC(=O)c1cc(-c2ccnc(N3CCN(C)CC3)c2)cc2c1cnn2C(C)C
# Outline: as §1
# givinostat = compound: CCN(CC)Cc1ccc2cc(COC(=O)Nc3ccc(C(=O)NO)cc3)ccc2c1 [givinostat]
# Outline: as §1
# barasertib = compound: CCN(CCCOc1ccc2c(Nc3cc(CC(=O)Nc4cccc(F)c4)[nH]n3)ncnc2c1)CCOP(=O)(O)O [barasertib]
# Outline: as §1
Target,log2 fold change [1],log2 fold change [2],log2 fold change [3],log2 fold change [4],log2 fold change (Nexturastat A),log2 fold change (vemurafenib),log2 fold change [5],log2 fold change [6],log2 fold change (givinostat),log2 fold change (barasertib)
CHM (UniProt P24386),inactive: 0.234,inactive: -0.034,inactive: -0.032,inactive: -0.268,inactive: 0.096,inactive: -0.064,inactive: -0.076,inactive: -0.089,inactive: 0.014,
CEP44 (UniProt Q9C0F1),inactive: -0.031,inactive: -0.072,inactive: 0.131,inactive: -0.008,inactive: 0.112,inactive: 0.01,inactive: 0.067,inactive: -0.077,inactive: -0.016,inactive: 0.079
CHMP2A (UniProt O43633),inactive: 0.017,inactive: -0.01,inactive: 0,inactive: 0.047,inactive: -0.11,inactive: 0.049,inactive: 0.032,inactive: -0.117,inactive: -0.005,inactive: 0.02
CDC42BPB (UniProt Q9Y5S2),inactive: -0.073,inactive: -0.07,inactive: -0.034,inactive: -0.072,inactive: 0.052,inactive: -0.046,inactive: -0.034,inactive: 0.079,inactive: -0.096,inactive: -0.087
CDCA5 (UniProt Q96FF9),inactive: -0.048,inactive: 0.149,inactive: -0.066,inactive: -0.286,inactive: -0.015,inactive: 0.072,inactive: -0.048,inactive: 0.009,inactive: 0.108,inactive: 0.001
CHCHD4 isoform 2 (UniProt Q8N4Q1),inactive: 0.373,inactive: 0.001,inactive: 0.157,inactive: -0.035,inactive: -0.026,inactive: -0.015,inactive: 0.412,inactive: -0.063,inactive: 0.029,inactive: -0.024
CFAP36 isoform 2 (UniProt Q96G28),inactive: 0.005,inactive: 0.024,inactive: 0.054,inactive: 0.066,inactive: 0.023,inactive: -0.041,inactive: 0.012,inactive: -0.061,inactive: -0.003,inactive: 0.03
CFAP298 (UniProt P57076),inactive: -0.09,inactive: 0.053,inactive: -0.167,inactive: -0.097,inactive: 0.203,inactive: -0.031,inactive: 0.093,inactive: 0.095,inactive: 0.174,inactive: 0.214
CDC42BPA isoform 6 (UniProt Q5VT25),inactive: 0.151,inactive: -0.079,inactive: 0.01,inactive: -0.015,inactive: 0.123,inactive: 0.004,inactive: 0.141,inactive: -0.013,inactive: 0.051,inactive: 0.04
CENPH (UniProt Q9H3R5),inactive: -0.072,inactive: 0.04,inactive: 0.081,inactive: 0.052,inactive: 0.142,inactive: 0.115,inactive: -0.012,inactive: 0.137,inactive: 0.03,inactive: -0.031
CHMP4B (UniProt Q9H444),inactive: 0.181,inactive: 0.008,inactive: -0.073,inactive: 0.007,inactive: -0.04,inactive: -0.036,inactive: -0.126,inactive: -0.02,inactive: -0.061,inactive: 0.001
CERS2 (UniProt Q96G23),inactive: -0.02,inactive: 0.015,inactive: 0.036,inactive: 0.019,inactive: -0.083,inactive: -0.018,inactive: 0.101,inactive: -0.013,inactive: -0.038,inactive: -0.002
CEP76 (UniProt Q8TAP6),inactive: 0.018,inactive: -0.044,inactive: -0.036,inactive: -0.012,inactive: 0.018,inactive: -0.029,inactive: -0.101,inactive: -0.036,inactive: -0.01,inactive: -0.011
CFL1 (UniProt P23528),inactive: 0.11,inactive: -0.017,inactive: -0.006,inactive: 0.031,inactive: -0.073,inactive: 0.014,inactive: -0.002,inactive: 0.006,inactive: -0.035,inactive: 0.025
CDK8 (UniProt P49336),inactive: 0.002,inactive: -0.005,inactive: 0.322,inactive: 0.064,inactive: -0.125,inactive: 0.041,inactive: 0.044,inactive: -0.081,inactive: 0.02,inactive: -0.343
CDK5 (UniProt Q00535),inactive: -0.053,inactive: -0.009,inactive: 0.001,inactive: -0.008,inactive: -0.002,inactive: 0.031,inactive: 0.058,inactive: 0.078,inactive: 0.003,
CES2 isoform 4 (UniProt O00748),inactive: -0.003,inactive: -0.072,inactive: 0.005,inactive: -0.065,inactive: 0.058,inactive: -0.029,inactive: -0.105,inactive: 0.003,inactive: 0.021,inactive: 0.022
CHMP5 (UniProt Q9NZZ3),inactive: -0.04,inactive: -0.009,inactive: -0.056,inactive: 0.032,inactive: -0.101,inactive: -0.013,inactive: -0.012,inactive: -0.04,inactive: -0.02,inactive: 0.007
CDS2 (UniProt O95674),inactive: -0.001,inactive: -0.026,inactive: -0.016,inactive: -0.062,inactive: -0.009,inactive: 0.035,inactive: 0.057,inactive: -0.011,inactive: 0.021,inactive: 0.029
CDC42EP1 (UniProt Q00587),inactive: -0.005,inactive: 0.034,inactive: -0.002,inactive: 0.073,inactive: 0.022,inactive: 0.011,inactive: -0.022,inactive: 0.075,inactive: 0.15,inactive: -0.004
CHMP1A (UniProt Q9HD42),inactive: -0.01,inactive: 0.032,inactive: 0.02,inactive: 0.023,inactive: -0.042,inactive: -0.015,inactive: -0.007,inactive: -0.05,inactive: -0.016,inactive: 0.025
CDK16 isoform 2 (UniProt Q00536),inactive: 0.003,inactive: -0.017,inactive: 0.028,inactive: 0.021,inactive: -0.052,inactive: -0.072,inactive: 0.027,inactive: -0.101,inactive: -0.043,inactive: -0.023
CFL2 (UniProt Q9Y281),inactive: 0.062,inactive: -0.034,inactive: -0.024,inactive: 0,inactive: -0.151,inactive: -0.011,inactive: -0.049,inactive: -0.143,inactive: 0.063,inactive: 0.022
CHKA (UniProt P35790),inactive: -0.011,inactive: -0.048,inactive: -0.125,inactive: 0.033,inactive: 0.036,inactive: -0.017,inactive: 0.019,inactive: -0.164,active: 0.334,inactive: 0.05
CFAP20 (UniProt Q9Y6A4),inactive: -0.043,inactive: 0.004,inactive: -0.049,inactive: -0.038,inactive: 0.134,inactive: -0.011,inactive: 0.021,inactive: -0.107,inactive: 0.019,inactive: -0.044
CHAC2 (UniProt Q8WUX2),inactive: -0.001,inactive: 0.025,inactive: 0.037,inactive: 0.015,inactive: -0.026,inactive: 0.04,inactive: 0.031,inactive: -0.08,inactive: 0.007,inactive: 0.079
CDCA8 (UniProt Q53HL2),inactive: -0.201,inactive: 0.011,,,,,,,,
CFH (UniProt P08603),inactive: 0.025,inactive: 0.012,inactive: -0.006,inactive: -0.013,inactive: 0.013,inactive: -0.025,inactive: -0.051,inactive: 0.053,inactive: -0.081,inactive: -0.023
CENPF (UniProt P49454),inactive: -0.067,inactive: 0.017,inactive: -0.06,inactive: -0.08,inactive: 0.05,inactive: -0.037,inactive: -0.047,inactive: 0.043,inactive: -0.011,inactive: -0.103
CHCHD6 (UniProt Q9BRQ6),inactive: 0.023,inactive: -0.039,inactive: 0.017,inactive: -0.05,inactive: 0.04,inactive: -0.026,inactive: -0.085,inactive: -0.06,inactive: 0.024,inactive: -0.035

# Part of the list above, with bars between the fields.
Target | log2 fold change [1] | log2 fold change [2] | log2 fold change [3] | log2 fold change [4] | log2 fold change (Nexturastat A) | log2 fold change (vemurafenib) | log2 fold change [5] | log2 fold change [6] | log2 fold change (givinostat) | log2 fold change (barasertib)
CDK16 isoform 2 (UniProt Q00536) | inactive: 0.003 | inactive: -0.017 | inactive: 0.028 | inactive: 0.021 | inactive: -0.052 | inactive: -0.072 | inactive: 0.027 | inactive: -0.101 | inactive: -0.043 | inactive: -0.023
CFL2 (UniProt Q9Y281) | inactive: 0.062 | inactive: -0.034 | inactive: -0.024 | inactive: 0 | inactive: -0.151 | inactive: -0.011 | inactive: -0.049 | inactive: -0.143 | inactive: 0.063 | inactive: 0.022
